Laboratory results from the supplement of paper PMC10849652.
Some of the results follow. Residues, ends and D or L forms follow the SMILES beside them. *: point of attachment. Cbz = O=C(OCc1ccccc1)*

Sequences of proteins named here, by UniProt entry; tags and fusion partners are left off. A change or cut given only in a name is not applied to a line headed by its entry.
UniProt P11182, whole entry, looked up: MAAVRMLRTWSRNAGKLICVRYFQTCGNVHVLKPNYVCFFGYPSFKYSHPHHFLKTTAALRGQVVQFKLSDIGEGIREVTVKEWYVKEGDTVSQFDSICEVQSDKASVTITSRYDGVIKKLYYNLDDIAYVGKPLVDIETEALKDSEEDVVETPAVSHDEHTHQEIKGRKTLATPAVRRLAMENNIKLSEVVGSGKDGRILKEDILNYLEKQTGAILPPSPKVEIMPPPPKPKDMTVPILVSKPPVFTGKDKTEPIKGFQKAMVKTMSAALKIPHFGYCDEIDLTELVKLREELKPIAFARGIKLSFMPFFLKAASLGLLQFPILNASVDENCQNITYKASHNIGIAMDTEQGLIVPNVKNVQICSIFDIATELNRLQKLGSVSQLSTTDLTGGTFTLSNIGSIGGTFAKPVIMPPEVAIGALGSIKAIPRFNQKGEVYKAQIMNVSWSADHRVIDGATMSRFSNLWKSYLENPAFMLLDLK
UniProt P13498: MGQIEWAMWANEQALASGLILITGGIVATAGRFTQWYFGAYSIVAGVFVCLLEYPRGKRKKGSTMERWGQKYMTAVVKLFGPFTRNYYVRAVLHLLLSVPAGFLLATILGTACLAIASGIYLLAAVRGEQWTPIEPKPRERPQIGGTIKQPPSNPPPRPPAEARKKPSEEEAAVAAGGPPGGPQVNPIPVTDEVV
UniProt Q8NA75: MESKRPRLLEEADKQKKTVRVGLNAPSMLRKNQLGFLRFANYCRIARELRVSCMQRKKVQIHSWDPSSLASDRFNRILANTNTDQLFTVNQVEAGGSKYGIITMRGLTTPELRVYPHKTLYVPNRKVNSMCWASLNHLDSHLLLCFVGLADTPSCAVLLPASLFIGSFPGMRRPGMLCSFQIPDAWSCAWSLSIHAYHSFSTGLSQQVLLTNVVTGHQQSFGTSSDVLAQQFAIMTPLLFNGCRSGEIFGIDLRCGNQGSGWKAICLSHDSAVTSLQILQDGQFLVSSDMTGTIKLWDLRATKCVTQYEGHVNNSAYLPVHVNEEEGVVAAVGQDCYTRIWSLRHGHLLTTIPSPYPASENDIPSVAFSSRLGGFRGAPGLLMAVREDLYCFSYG
UniProt Q9UBR2: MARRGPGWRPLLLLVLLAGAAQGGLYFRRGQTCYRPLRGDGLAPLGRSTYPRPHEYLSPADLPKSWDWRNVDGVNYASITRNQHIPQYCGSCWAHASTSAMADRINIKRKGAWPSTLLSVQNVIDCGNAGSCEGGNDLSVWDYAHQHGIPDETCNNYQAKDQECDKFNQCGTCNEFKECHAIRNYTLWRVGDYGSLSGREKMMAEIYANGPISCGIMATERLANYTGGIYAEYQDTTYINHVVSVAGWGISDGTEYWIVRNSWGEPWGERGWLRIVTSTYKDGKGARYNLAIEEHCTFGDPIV
UniProt P61803: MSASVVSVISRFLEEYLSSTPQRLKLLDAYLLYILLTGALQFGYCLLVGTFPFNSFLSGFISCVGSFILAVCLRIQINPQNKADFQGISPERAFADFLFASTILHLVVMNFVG
UniProt O95715: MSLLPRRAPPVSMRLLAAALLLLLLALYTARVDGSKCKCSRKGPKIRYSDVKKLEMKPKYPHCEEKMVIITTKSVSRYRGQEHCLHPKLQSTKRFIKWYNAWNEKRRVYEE
UniProt O60911: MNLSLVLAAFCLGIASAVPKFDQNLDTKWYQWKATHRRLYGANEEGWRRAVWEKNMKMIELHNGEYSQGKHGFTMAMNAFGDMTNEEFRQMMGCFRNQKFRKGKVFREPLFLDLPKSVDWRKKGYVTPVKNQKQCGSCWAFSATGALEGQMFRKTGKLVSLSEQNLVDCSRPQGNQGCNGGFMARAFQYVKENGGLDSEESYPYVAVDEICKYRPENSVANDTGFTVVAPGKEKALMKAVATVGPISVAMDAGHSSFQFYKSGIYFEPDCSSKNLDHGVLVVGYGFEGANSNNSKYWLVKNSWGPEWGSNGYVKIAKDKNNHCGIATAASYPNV
UniProt P35222, whole entry, looked up: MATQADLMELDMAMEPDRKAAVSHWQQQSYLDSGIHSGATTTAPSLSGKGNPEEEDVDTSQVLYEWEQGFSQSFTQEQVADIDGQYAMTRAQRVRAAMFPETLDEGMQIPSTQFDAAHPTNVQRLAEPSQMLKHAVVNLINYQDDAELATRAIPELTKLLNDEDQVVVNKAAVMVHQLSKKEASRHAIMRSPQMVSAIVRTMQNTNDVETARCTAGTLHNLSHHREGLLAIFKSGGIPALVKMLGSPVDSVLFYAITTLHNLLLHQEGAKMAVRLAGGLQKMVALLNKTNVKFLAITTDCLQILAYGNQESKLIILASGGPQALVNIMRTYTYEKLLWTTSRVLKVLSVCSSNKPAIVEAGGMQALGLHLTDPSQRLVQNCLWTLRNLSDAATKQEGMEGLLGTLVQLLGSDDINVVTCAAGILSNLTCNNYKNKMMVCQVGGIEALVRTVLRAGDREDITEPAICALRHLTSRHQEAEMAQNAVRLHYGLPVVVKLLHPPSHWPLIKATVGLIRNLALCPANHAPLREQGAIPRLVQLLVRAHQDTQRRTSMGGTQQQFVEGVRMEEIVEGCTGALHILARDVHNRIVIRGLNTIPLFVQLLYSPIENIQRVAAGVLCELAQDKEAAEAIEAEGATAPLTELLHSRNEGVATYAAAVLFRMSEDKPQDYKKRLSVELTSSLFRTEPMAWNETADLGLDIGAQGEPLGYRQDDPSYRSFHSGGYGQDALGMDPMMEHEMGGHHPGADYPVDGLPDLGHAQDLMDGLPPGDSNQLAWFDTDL
UniProt Q9BWK5: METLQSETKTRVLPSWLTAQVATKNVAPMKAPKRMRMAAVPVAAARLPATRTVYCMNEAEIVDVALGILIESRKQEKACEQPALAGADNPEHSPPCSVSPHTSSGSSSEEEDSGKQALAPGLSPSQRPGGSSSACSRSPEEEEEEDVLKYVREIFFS
UniProt Q5QP82: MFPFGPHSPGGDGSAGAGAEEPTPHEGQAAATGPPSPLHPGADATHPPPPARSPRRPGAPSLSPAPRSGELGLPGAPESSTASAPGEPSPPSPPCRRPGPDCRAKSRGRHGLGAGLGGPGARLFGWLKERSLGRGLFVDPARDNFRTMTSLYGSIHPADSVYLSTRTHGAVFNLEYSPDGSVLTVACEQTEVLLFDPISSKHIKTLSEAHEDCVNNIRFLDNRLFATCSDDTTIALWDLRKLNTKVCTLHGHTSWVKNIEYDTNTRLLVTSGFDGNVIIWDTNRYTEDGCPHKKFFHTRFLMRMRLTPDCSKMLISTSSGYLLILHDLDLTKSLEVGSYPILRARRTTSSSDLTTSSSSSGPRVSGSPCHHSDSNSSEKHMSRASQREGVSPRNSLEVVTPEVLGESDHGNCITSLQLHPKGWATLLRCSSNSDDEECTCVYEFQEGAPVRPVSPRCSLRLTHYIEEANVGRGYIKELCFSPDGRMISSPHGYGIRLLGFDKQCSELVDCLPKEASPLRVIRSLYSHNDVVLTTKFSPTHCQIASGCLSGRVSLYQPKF

Legend:
Experiment in all cases: log2 fold change, soluble protein after heating vs DMSO (PISA); higher = thermal stabilisation; K562 cells, 10 uM, 30 min; active = over 0.2 and 3.5 SD of the protein, either way, in both replicates (recomputed)
[1] = compound: C1COCCN1CCN2C3=CC=CC=C3N=C2NC(=O)C4=CC(=CC=C4)[N+](=O)[O-] [IRAK-1-4 Inhibitor I]
Method in brief: (§1)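 K562 cells at 2×10^6 cells/mL were exposed to 10 μM compound for 30 min, then aliquots were heated for 3 min across 48°C-58°C, pooled, and extracted in PBS containing 0.5% NP-40 at 4°C. The supernatant after 21,000xg for 90 min was taken as soluble protein and measured by TMTpro 16plex LC-MS/MS with channel sums equalised. Thermal stability is reported relative to control samples, with values from duplicates. Fold changes are given on a log2 scale.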

[2] = compound: C=CC(=O)N1CCC[C@@H](n2nc(-c3ccc(Oc4ccccc4)cc3)c3c(N)ncnc32)C1 [ibrutinib]
Method in brief: as §1

[3] = compound: CC(=O)c1cnc2ccc(-c3cc(Cl)c(O)c(Cl)c3)nc2c1N[C@H]1CC[C@H](CN(C)C)CC1
Method in brief: as §1

[4] = compound: CC(C)(C)Cn1c(N)nc2ccc(-c3[nH]c(C(C)(C)C)nc3-c3ccc(F)cc3)nc21 [ralimetinib]
Method in brief: as §1

[5] = compound: CC(C)(O)CC(=O)NCCn1ccc2ncnc(Nc3ccc(Oc4cccc(C(F)(F)F)c4)c(Cl)c3)c21
Method in brief: as §1

[6] = compound: CC(C)C1=C2N=C(C=C(N2N=C1)NCC3=CC=CC=C3)NCCCCCCN
Method in brief: as §1

[7] = compound: CC(C)C[C@@H](C=O)NC(=O)[C@H](CC(C)C)NC(=O)[C@H](CC(C)C)NC(=O)OCc1ccccc1
Method in brief: as §1

[8] = compound: CC(C)N(C[C@H]1O[C@@H](n2cnc3c(N)ncnc32)[C@H](O)[C@@H]1O)[C@H]1C[C@@H](CCc2nc3cc(C(C)(C)C)ccc3[nH]2)C1 [pinometostat]
Method in brief: as §1

[9] = compound: CC1=C(C2=C(C=C1)C(=O)C3=CC=CC=C3N2CCCN)C
Method in brief: as §1

[10] = compound: CC1=C(C=C(C=C1)NC(=O)C2=CC(=CC=C2)C(C)(C)C#N)NC3=CC4=C(C=C3)N=CN(C4=O)C
Method in brief: as §1

[11] = compound: CC1=C(C=C(C=C1)NC(=O)C2=CC(=CC=C2)N(C)C)NC(=O)C3=CC=C(C=C3)O
Method in brief: as §1

[12] = compound: CC1=CC=C(C=C1)SC2=C3C=C(SC3=CN=C2)C(=O)N
Method in brief: as §1

[13] = compound: CC1=NC(=CC=C1)C2=C(N=C(N2)C(C)(C)C)C3=CC4=NC=CN=C4C=C3
Method in brief: as §1

[14] = compound: CCCCN(Cc1ccc(C(=O)NO)cc1)C(=O)Nc1ccccc1 [Nexturastat A]
Method in brief: as §1

[15] = compound: CCCS(=O)(=O)Nc1ccc(F)c(C(=O)c2c[nH]c3ncc(-c4ccc(Cl)cc4)cc23)c1F [vemurafenib]
Method in brief: as §1

[16] = compound: CCCS(=O)(=O)Nc1ccc(F)c(C(=O)c2c[nH]c3ncc(Cl)cc23)c1F
Method in brief: as §1

[17] = compound: CCCc1cc(C)[nH]c(=O)c1CNC(=O)c1cc(-c2ccnc(N3CCN(C)CC3)c2)cc2c1cnn2C(C)C
Method in brief: as §1

[18] = compound: CCN(CC)Cc1ccc2cc(COC(=O)Nc3ccc(C(=O)NO)cc3)ccc2c1 [givinostat]
Method in brief: as §1

[19] = compound: CCN(CCCOc1ccc2c(Nc3cc(CC(=O)Nc4cccc(F)c4)[nH]n3)ncnc2c1)CCOP(=O)(O)O [barasertib]
Method in brief: as §1

[20] = compound: CC1=C(C(CC(=O)N1)C2=CC=C(C=C2)C(F)(F)F)C(=O)NC3=C(C=C4C(=C3)C=NN4)F
Method in brief: as §1

Measured: log2 fold change

DBT (UniProt P11182)
inactive: [1] -0.004 | [2] 0.019 | [3] 0.021 | [4] 0.109 | [5] 0.006 | [6] 0.027 | [7] 0.023 | [8] 0.002 | [10] 0.001 | [11] -0.017 | [12] 0.01 | [13] -0.015 | [14] 0.024 | [15] -0.011 | [16] 0.015 | [17] -0.042 | [18] 0.005 | [19] -0.033
active: [9] 0.352

CYBA (UniProt P13498)
inactive: [1] 0.044 | [2] 0.024 | [3] -0.024 | [4] -0.041 | [5] -0.152 | [7] 0.121 | [8] -0.036 | [9] -0.026 | [10] -0.017 | [11] 0.025 | [12] 0.041 | [13] -0.02 | [14] -0.033 | [15] 0 | [16] 0.008 | [17] -0.028 | [18] 0.007 | [19] -0.033
active: [6] -0.43

DCAF4L2 (UniProt Q8NA75)
inactive: [1] 0.131 | [2] -0.007 | [3] -0.015 | [4] -0.023 | [6] -0.031 | [7] 0.178 | [8] -0.012 | [20] -0.036 | [9] 0.073 | [10] -0.096 | [11] 0.068 | [12] -0.01 | [13] -0.017 | [15] -0.041 | [16] -0.049 | [17] 0.138 | [18] -0.013 | [19] 0.044

CTSZ (UniProt Q9UBR2)
inactive: [1] 0.008 | [2] -0.02 | [3] 0.053 | [4] -0.062 | [5] 0 | [7] 0.082 | [8] -0.076 | [9] -0.036 | [10] -0.009 | [11] -0.004 | [12] 0.025 | [13] 0.002 | [14] -0.009 | [15] -0.026 | [16] -0.045 | [17] -0.017 | [18] 0.152 | [19] 0.027
active: [6] -0.395

DAD1 (UniProt P61803)
inactive: [1] 0.025 | [2] -0.113 | [3] -0.036 | [5] -0.161 | [6] -0.108 | [8] 0.038 | [20] -0.143 | [9] 0.005 | [10] -0.135 | [12] -0.152 | [13] 0.038 | [14] 0.06 | [15] -0.037 | [16] 0.048 | [17] 0.025 | [18] 0.104 | [19] 0.012

CXCL14 (UniProt O95715)
inactive: [1] -0.249 | [2] -0.05 | [8] -0.017 | [20] 0.114 | [10] -0.02 | [13] -0.114 | [17] -0.097 | [19] 0.063

CTSV (UniProt O60911)
inactive: [1] 0.032 | [2] -0.002 | [3] 0.09 | [4] -0.035 | [5] -0.005 | [7] 0.14 | [8] 0.011 | [9] 0.125 | [10] 0 | [11] 0.019 | [12] 0 | [13] -0.017 | [14] -0.043 | [15] -0.021 | [16] -0.006 | [17] -0.062 | [18] 0.194 | [19] 0.032
active: [6] -0.917

CTNNB1 (UniProt P35222)
inactive: [1] -0.028 | [2] -0.116 | [3] 0.263 | [4] -0.045 | [5] -0.056 | [6] -0.007 | [7] 0.081 | [8] -0.021 | [9] 0.003 | [10] -0.118 | [11] -0.018 | [12] 0.09 | [13] -0.028 | [14] 0.172 | [15] -0.22 | [16] -0.002 | [17] -0.134 | [18] 0.129 | [19] 0.04

2 consecutive entries from above, for reference:
CXCL14 (UniProt O95715)
inactive: [1] -0.249 | [2] -0.05 | [8] -0.017 | [20] 0.114 | [10] -0.02 | [13] -0.114 | [17] -0.097 | [19] 0.063

CTSV (UniProt O60911)
inactive: [1] 0.032 | [2] -0.002 | [3] 0.09 | [4] -0.035 | [5] -0.005 | [7] 0.14 | [8] 0.011 | [9] 0.125 | [10] 0 | [11] 0.019 | [12] 0 | [13] -0.017 | [14] -0.043 | [15] -0.021 | [16] -0.006 | [17] -0.062 | [18] 0.194 | [19] 0.032
active: [6] -0.917

(continued)

CYREN isoform 4 (UniProt Q9BWK5)
inactive: [1] -0.115 | [2] -0.058 | [3] -0.061 | [8] -0.042 | [12] -0.059 | [13] 0.042 | [15] -0.069 | [16] 0 | [17] -0.001 | [19] -0.247

DCAF10 (UniProt Q5QP82)
inactive: [1] 0 | [2] 0 | [3] -0.006 | [4] -0.082 | [5] -0.041 | [6] 0.02 | [7] 0.026 | [8] -0.016 | [9] 0.01 | [10] -0.024 | [11] 0.121 | [12] -0.015 | [13] -0.009 | [14] 0.012 | [15] -0.044 | [16] 0.002 | [17] -0.121 | [18] -0.094 | [19] -0.006
